These are yes or no findings as the source states them, for the method shown. Binding seen in cells or lysates may run through a third protein. Some results given as binding are weak or reduced against the parent protein; the word gives no strength. Tags and fused reporters may be left off the sequences shown.
T1: mouse TOMT with a C-terminal HA tag (TOMT-HA) (mouse) (UniProt A1Y9I9)
T1 sequence: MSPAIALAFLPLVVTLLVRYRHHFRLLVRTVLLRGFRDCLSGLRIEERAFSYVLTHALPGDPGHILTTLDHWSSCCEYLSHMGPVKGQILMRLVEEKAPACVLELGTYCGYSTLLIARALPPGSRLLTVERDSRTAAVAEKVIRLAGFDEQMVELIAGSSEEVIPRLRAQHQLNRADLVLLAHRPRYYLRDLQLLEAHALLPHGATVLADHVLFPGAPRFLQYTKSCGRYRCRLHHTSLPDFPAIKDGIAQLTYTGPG

T2: mouse TOMT with a C-terminal FLAG tag (TOMT-FLAG) (mouse) (UniProt A1Y9I9)
T2 sequence: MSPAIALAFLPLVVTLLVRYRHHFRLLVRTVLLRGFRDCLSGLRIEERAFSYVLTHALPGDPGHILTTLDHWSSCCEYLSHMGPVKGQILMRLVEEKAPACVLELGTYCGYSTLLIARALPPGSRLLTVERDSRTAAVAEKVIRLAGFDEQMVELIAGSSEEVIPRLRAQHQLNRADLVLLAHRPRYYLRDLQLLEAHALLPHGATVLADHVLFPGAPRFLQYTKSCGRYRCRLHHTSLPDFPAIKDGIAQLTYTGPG


Assays:
[1] = molecular target: T1, mouse TOMT with a C-terminal HA tag (TOMT-HA) (mouse); assay: co-IP; HEK293 cells co-transfected, lysed after 48 hr in CoIP buffer (50 mM HEPES pH 7.5, 50-300 mM NaCl, 1.5 mM MgCl2, 10% glycerol, 1% Triton X-100, 1 mM EDTA); IP 1 hr at 4°C with HA affinity gel (Figure 8A,B,E) or Flag M2 affinity gel (Figure 8C,D), Western blot
[2] = molecular target: T2, mouse TOMT with a C-terminal FLAG tag (TOMT-FLAG) (mouse); assay: as above

| binding [1] | binding [2] | Binder |
| --- | --- | --- |
| binds | – | Myc-TMC2 (protein, UniProt Q8R4P4 1-888) MSPQLKSLDEEGDKSARRPTRKQTSRAACPQDGHRAQSSRKDPAKGSPRPGSSRKKQMEHGSYHKGLQGQKPRKVERSLQGRKKDRRTSLKEQRASPKKEREALRKEAGKQLRKPRSTSLGSSVSTGDSLSEEELAQILEQVEEKKKLITTVRNKPWPMAKKLRELREAQAFVEKYEGALGKGKGKHLYAYRMMMAKKWVKFKRDFDNFKTQCIPWEMKIKDIESHFGSSVASYFIFLRWMYGVNLVLFGLIFGLVIIPEVLMGMPYGSIPRKTVPRAEEERAMDFSVLWDFEGYIKYSALFYGYYNNQRTIGWLRYRLPMAYFMVGVSVFGYSLMIVIRSMASNTQGSTSEGDSDSFTFSFKMFTSWDYLIGNSETADNKYVSITTSFKESIVDEQESNKEGNIHLTRFLRVLANFLILCCLCGSGYLIYFVVKRSQEFSKMQNVSWYERNEVEIVMSLLGMFCPPLFETIAALENYHPRTGLKWQLGRIFALFLGNLYTFLLALMDDVHLKLSNEEKIKNITHWTLFNYYNSSGGNESVPRPPPHPADVPRGSCWETAVGIEFMRLTVSDMLVTYLTILVGDFLRACFVRFMNHCWCWDLEAGFPSYAEFDISGNVLGLIFNQGMIWMGSFYAPGLVGINVLRLLTSMYFQCWAVMSSNVPHERVFKASRSNNFYMGLLLLVLFLSLLPVAYTVMSLPPSFDCGPFSGKNRMYDVLHETIENDFPKFLGKIFAFLANPGLIIPAILLMFLAIYYLNSVSKSLSRANAQLRKKIQALREVEKNHKSIKGKAIVTYSEDTIKNSSKNATQIHLTKEEPTSHSSSQIQTLDKKAQGPHTSSTEGGASPSTSWHHVGSQPPRGRRDSGQPQSQTYTGRSPSGKRTQRPHN |
| binds | – | Myc-TMC1 (protein, UniProt Q8R4P5 1-757) MLQIQVEEKEEDTEESSSEEEEDKLPRRESLRPKRKRTRDVINEDDPEPEPEDEETRKAREKERRRRLRRGAEEEEEIDEEELERLKALLDENRQMIATVKCKPWKMEKKIEVLKEAKKFVSENEGALGKGKGKKWFAFKMMMAKKWAKFLRDFENFKAACVPWENKIKAIESQFGSSVASYFLFLRWMYGVNMVLFVLTFSLIMLPEYLWGLPYGSLPRKTVPRAEEASAANFGVLYDFNGLAQYSVLFYGYYDNKRTIGWLNFRLPLSYFLVGIMCIGYSFLVVLKAMTKNIGDDGGGDDNTFNFSWKVFCSWDYLIGNPETADNKFNSITMNFKEAIIEERAAQVEENIHLIRFLRFLANFFVFLTLGASGYLIFWAVKRSQEFAQQDPDTLGWWEKNEMNMVMSLLGMFCPTLFDLFAELEDYHPLIALKWLLGRIFALLLGNLYVFILALMDEINNKIEEEKLVKANITLWEANMIKAYNESLSGLSGNTTGAPFFVHPADVPRGPCWETMVGQEFVRLTVSDVLTTYVTILIGDFLRACFVRFCNYCWCWDLEYGYPSYTEFDISGNVLALIFNQGMIWMGSFFAPSLPGINILRLHTSMYFQCWAVMCCNVPEARVFKASRSNNFYLGMLLLILFLSTMPVLYMIVSLPPSFDCGPFSGKNRMFEVIGETLEHDFPSWMAKILRQLSNPGLVIAVILVMVLTIYYLNATAKGQKAANLDLKKKMKQQALENKMRNKKMAAARAAAAAGGQ |
| – | binds | TMIE-HA (protein, UniProt Q8K467 29-153) QLVEPSTAPPKPKPPPLTKETVVFWDMRLWHVVGIFSLFVLSIIITLCCVFNCRVPRTRKEIEARYLQRKAAKMYTDKLETVPPLNELTEIPGEDKKKKKKDSVDTVAIKVEEDEKNEAKKKGEK |

Source: publication PMC5462538
